According to PMC11912016:
No constants are given. Whether binding was seen depends on the method and setting. Binding seen in cells or lysates may run through a third protein. A yes stands for co-enrichment or nearness to the bait. Other partners may have been found.

By UniProt entry, the sequences of proteins in these tests, tags left out.
UniProt P43006: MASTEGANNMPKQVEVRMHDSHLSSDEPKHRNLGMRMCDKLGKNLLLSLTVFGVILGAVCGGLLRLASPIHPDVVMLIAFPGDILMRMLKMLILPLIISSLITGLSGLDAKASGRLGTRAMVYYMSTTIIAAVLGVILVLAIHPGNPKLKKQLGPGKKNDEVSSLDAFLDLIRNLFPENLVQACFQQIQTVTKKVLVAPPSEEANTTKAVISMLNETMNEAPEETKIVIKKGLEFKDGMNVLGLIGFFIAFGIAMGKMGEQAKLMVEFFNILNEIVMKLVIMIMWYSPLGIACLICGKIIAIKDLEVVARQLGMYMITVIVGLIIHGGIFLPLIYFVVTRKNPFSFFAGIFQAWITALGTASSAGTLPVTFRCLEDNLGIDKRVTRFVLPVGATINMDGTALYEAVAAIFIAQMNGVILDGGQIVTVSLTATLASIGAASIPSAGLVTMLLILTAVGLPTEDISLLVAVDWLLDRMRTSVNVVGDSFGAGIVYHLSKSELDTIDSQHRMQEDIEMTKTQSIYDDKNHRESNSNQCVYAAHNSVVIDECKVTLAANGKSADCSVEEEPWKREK

Molecular target: T1, Crystallin alpha B (CRYAB) (mouse (endogenous in NAcc)) (UniProt P23927)
T1 sequence: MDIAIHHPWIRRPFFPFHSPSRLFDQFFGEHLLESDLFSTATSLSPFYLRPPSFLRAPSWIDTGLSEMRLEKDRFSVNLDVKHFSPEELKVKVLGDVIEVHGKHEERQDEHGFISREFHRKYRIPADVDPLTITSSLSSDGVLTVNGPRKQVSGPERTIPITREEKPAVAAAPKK
Experiment: affinity purification with mass spectrometry; co-IP with CRYAB antibody from NAcc of control or cocaine (10 mg/kg) treated mice, protein A/G magnetic beads, eluate analysed by LC-MS/MS

Q: For “excitatory amino acid transporter 2 (EAAT2) (from UniProt P43006 1-572)”, which binding is on record?
A: binds
